# Measurements taken from the supplement of paper PMC8728848.
# The other results are listed elsewhere or left out.
# Experiments:
# Test in all cases: glycan array binding signal (z-score within array); higher = stronger binding
# Conditions in all cases: glycan notation: IUPAC condensed, linker removed
# [1] = molecular target: GlcNAc(a1-6)Gal(b1-4)GlcNAc
# Procedure, shortened: (§1)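 Glycan array data were curated from 3228 arrays in the Consortium for Functional Glycomics database and kept only where the protein sequence was available. Glycan names were converted to IUPAC-condensed notation, and columns mapping to the same glycan were averaged. The binding signal is a within-array Z-score, averaged across arrays of the same protein sequence at different concentrations or buffers and across linkers. Negative Z-scores can be read as non-binding.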
# [2] = molecular target: GlcNAc(b1-2)Gal(b1-3)GalNAc
# Procedure, shortened: as §1
# [3] = molecular target: GlcNAc(b1-2)Man(a1-3)[GlcNAc(b1-2)Man(a1-6)]Man(b1-4)GlcNAc(b1-4)GlcNAc
# Procedure, shortened: as §1
# [4] = molecular target: GlcNAc(b1-2)Man(a1-3)[GlcNAc(b1-2)Man(a1-6)]Man(b1-4)GlcNAc(b1-4)[Fuc(a1-6)]GlcNAc
# Procedure, shortened: as §1
# [5] = molecular target: GlcNAc(b1-2)Man(a1-3)[GlcNAc(b1-4)][GlcNAc(b1-2)Man(a1-6)]Man(b1-4)GlcNAc(b1-4)GlcNAc
# Procedure, shortened: as §1
# [6] = molecular target: GlcNAc(b1-2)Man(a1-3)[GlcNAc(b1-4)][GlcNAc(b1-2)Man(a1-6)]Man(b1-4)GlcNAc(b1-4)[Fuc(a1-6)]GlcNAc
# Procedure, shortened: as §1
# [7] = molecular target: GlcNAc(b1-2)[GlcNAc(b1-4)]Man(a1-3)[GlcNAc(b1-2)Man(a1-6)]Man(b1-4)GlcNAc(b1-4)GlcNAc
# Procedure, shortened: as §1
# [8] = molecular target: GlcNAc(b1-2)[GlcNAc(b1-4)]Man(a1-3)[GlcNAc(b1-4)][GlcNAc(b1-2)Man(a1-6)]Man(b1-4)GlcNAc(b1-4)GlcNAc
# Procedure, shortened: as §1
# [9] = molecular target: GlcNAc(b1-2)[GlcNAc(b1-4)]Man(a1-3)[GlcNAc(b1-4)][GlcNAc(b1-2)[GlcNAc(b1-6)]Man(a1-6)]Man(b1-4)GlcNAc(b1-4)GlcNAc
# Procedure, shortened: as §1
# [10] = molecular target: GlcNAc(b1-2)[GlcNAc(b1-4)]Man(a1-3)[GlcNAc(b1-4)][GlcNAc(b1-2)[GlcNAc(b1-6)]Man(a1-6)]Man(b1-4)GlcNAc(b1-4)[Fuc(a1-6)]GlcNAc
# Procedure, shortened: as §1
# [11] = molecular target: GlcNAc(b1-2)[GlcNAc(b1-6)]Man(a1-6)[GlcNAc(b1-2)Man(a1-3)]Man(b1-4)GlcNAc(b1-4)GlcNAc
# Procedure, shortened: as §1
# [12] = molecular target: GlcNAc(b1-2)[GlcNAc(b1-6)]Man(a1-6)[GlcNAc(b1-2)Man(a1-3)]Man(b1-4)GlcNAc(b1-4)[Fuc(a1-6)]GlcNAc
# Procedure, shortened: as §1
# [13] = molecular target: GlcNAc(b1-2)[GlcNAc(b1-6)]Man(a1-6)[GlcNAc(b1-4)][GlcNAc(b1-2)Man(a1-3)]Man(b1-4)GlcNAc(b1-4)GlcNAc
# Procedure, shortened: as §1
# [14] = molecular target: GlcNAc(b1-3)Fuc
# Procedure, shortened: as §1
# [15] = molecular target: GlcNAc(b1-3)Gal
# Procedure, shortened: as §1
# [16] = molecular target: GlcNAc(b1-3)Gal(b1-3)GalNAc
# Procedure, shortened: as §1
# [17] = molecular target: GlcNAc(b1-3)Gal(b1-4)Glc
# Procedure, shortened: as §1
# [18] = molecular target: GlcNAc(b1-3)Gal(b1-4)GlcNAc
# Procedure, shortened: as §1
# [19] = molecular target: GlcNAc(b1-3)Gal(b1-4)GlcNAc(b1-2)Man(a1-3)[GlcNAc(b1-3)Gal(b1-4)GlcNAc(b1-2)Man(a1-6)]Man(b1-4)GlcNAc(b1-4)GlcNAc
# Procedure, shortened: as §1
# [20] = molecular target: GlcNAc(b1-3)Gal(b1-4)GlcNAc(b1-2)Man(a1-3)[GlcNAc(b1-3)Gal(b1-4)GlcNAc(b1-2)Man(a1-6)]Man(b1-4)GlcNAc(b1-4)[Fuc(a1-6)]GlcNAc
# Procedure, shortened: as §1
# [21] = molecular target: GlcNAc(b1-3)Gal(b1-4)GlcNAc(b1-2)[GlcNAc(b1-3)Gal(b1-4)GlcNAc(b1-6)]Man(a1-6)[GlcNAc(b1-3)Gal(b1-4)GlcNAc(b1-2)Man(a1-3)]Man(b1-4)GlcNAc(b1-4)GlcNAc
# Procedure, shortened: as §1
# [22] = molecular target: GlcNAc(b1-3)Gal(b1-4)GlcNAc(b1-3)Gal(b1-4)GlcNAc
# Procedure, shortened: as §1
# [23] = molecular target: GlcNAc(b1-3)Gal(b1-4)GlcNAc(b1-3)Gal(b1-4)GlcNAc(b1-2)Man(a1-3)[GlcNAc(b1-3)Gal(b1-4)GlcNAc(b1-3)Gal(b1-4)GlcNAc(b1-2)Man(a1-6)]Man(b1-4)GlcNAc(b1-4)GlcNAc
# Procedure, shortened: as §1
# [24] = molecular target: GlcNAc(b1-3)Gal(b1-4)GlcNAc(b1-3)Gal(b1-4)GlcNAc(b1-2)Man(a1-3)[GlcNAc(b1-3)Gal(b1-4)GlcNAc(b1-3)Gal(b1-4)GlcNAc(b1-2)Man(a1-6)]Man(b1-4)GlcNAc(b1-4)[Fuc(a1-6)]GlcNAc
# Procedure, shortened: as §1
# [25] = molecular target: GlcNAc(b1-3)Gal(b1-4)GlcNAc(b1-3)Gal(b1-4)GlcNAc(b1-2)[GlcNAc(b1-3)Gal(b1-4)GlcNAc(b1-3)Gal(b1-4)GlcNAc(b1-6)]Man(a1-6)[GlcNAc(b1-3)Gal(b1-4)GlcNAc(b1-3)Gal(b1-4)GlcNAc(b1-2)Man(a1-3)]Man(b1-4)GlcNAc(b1-4)[Fuc(a1-6)]GlcNAc
# Procedure, shortened: as §1
# [26] = molecular target: GlcNAc(b1-3)Gal(b1-4)GlcNAc(b1-3)Gal(b1-4)GlcNAc(b1-3)Gal(b1-4)GlcNAc(b1-2)Man(a1-3)[GlcNAc(b1-3)Gal(b1-4)GlcNAc(b1-3)Gal(b1-4)GlcNAc(b1-3)Gal(b1-4)GlcNAc(b1-2)Man(a1-6)]Man(b1-4)GlcNAc(b1-4)GlcNAc
# Procedure, shortened: as §1
# [27] = molecular target: GlcNAc(b1-3)Gal(b1-4)GlcNAc(b1-3)Gal(b1-4)GlcNAc(b1-3)Gal(b1-4)GlcNAc(b1-2)Man(a1-3)[GlcNAc(b1-3)Gal(b1-4)GlcNAc(b1-3)Gal(b1-4)GlcNAc(b1-3)Gal(b1-4)GlcNAc(b1-2)Man(a1-6)]Man(b1-4)GlcNAc(b1-4)[Fuc(a1-6)]GlcNAc
# Procedure, shortened: as §1
# [28] = molecular target: GlcNAc(b1-3)Gal(b1-4)GlcNAc(b1-3)Gal(b1-4)GlcNAc(b1-3)Gal(b1-4)GlcNAc(b1-2)[GlcNAc(b1-3)Gal(b1-4)GlcNAc(b1-3)Gal(b1-4)GlcNAc(b1-3)Gal(b1-4)GlcNAc(b1-6)]Man(a1-6)[GlcNAc(b1-3)Gal(b1-4)GlcNAc(b1-3)Gal(b1-4)GlcNAc(b1-3)Gal(b1-4)GlcNAc(b1-2)Man(a1-3)]Man(b1-4)GlcNAc(b1-4)[Fuc(a1-6)]GlcNAc
# Procedure, shortened: as §1
# [29] = molecular target: GlcNAc(b1-3)Gal(b1-4)GlcNAc(b1-3)Gal(b1-4)GlcNAc(b1-3)Gal(b1-4)GlcNAc(b1-3)Gal(b1-4)GlcNAc(b1-2)Man(a1-3)[GlcNAc(b1-3)Gal(b1-4)GlcNAc(b1-3)Gal(b1-4)GlcNAc(b1-3)Gal(b1-4)GlcNAc(b1-3)Gal(b1-4)GlcNAc(b1-2)Man(a1-6)]Man(b1-4)GlcNAc(b1-4)GlcNAc
# Procedure, shortened: as §1
# [30] = molecular target: GlcNAc(b1-3)Gal(b1-4)GlcNAc(b1-3)Gal(b1-4)GlcNAc(b1-3)Gal(b1-4)GlcNAc(b1-3)Gal(b1-4)GlcNAc(b1-2)Man(a1-3)[GlcNAc(b1-3)Gal(b1-4)GlcNAc(b1-3)Gal(b1-4)GlcNAc(b1-3)Gal(b1-4)GlcNAc(b1-3)Gal(b1-4)GlcNAc(b1-2)Man(a1-6)]Man(b1-4)GlcNAc(b1-4)[Fuc(a1-6)]GlcNAc
# Procedure, shortened: as §1
# [31] = molecular target: GlcNAc(b1-3)Gal(b1-4)GlcNAc(b1-3)Gal(b1-4)GlcNAc(b1-3)Gal(b1-4)GlcNAc(b1-3)Gal(b1-4)GlcNAc(b1-2)[GlcNAc(b1-3)Gal(b1-4)GlcNAc(b1-3)Gal(b1-4)GlcNAc(b1-3)Gal(b1-4)GlcNAc(b1-3)Gal(b1-4)GlcNAc(b1-6)]Man(a1-6)[GlcNAc(b1-3)Gal(b1-4)GlcNAc(b1-3)Gal(b1-4)GlcNAc(b1-3)Gal(b1-4)GlcNAc(b1-3)Gal(b1-4)GlcNAc(b1-2)Man(a1-3)]Man(b1-4)GlcNAc(b1-4)[Fuc(a1-6)]GlcNAc
# Procedure, shortened: as §1
# [32] = molecular target: GlcNAc(b1-3)Gal(b1-4)GlcNAc(b1-3)Gal(b1-4)GlcNAc(b1-3)GalNAc
# Procedure, shortened: as §1
# [33] = molecular target: GlcNAc(b1-3)Gal(b1-4)GlcNAc(b1-3)GalNAc
# Procedure, shortened: as §1
# [34] = molecular target: GlcNAc(b1-3)Gal(b1-4)GlcNAc(b1-3)[GlcNAc(b1-3)Gal(b1-4)GlcNAc(b1-3)]GalNAc
# Procedure, shortened: as §1
# [35] = molecular target: GlcNAc(b1-3)Gal(b1-4)GlcNAc(b1-6)[Gal(b1-3)]GalNAc
# Procedure, shortened: as §1
# [36] = molecular target: GlcNAc(b1-3)Gal(b1-4)GlcNAc(b1-6)[GlcNAc(b1-3)Gal(b1-3)]GalNAc
# Procedure, shortened: as §1
# [37] = molecular target: GlcNAc(b1-3)Gal(b1-4)GlcNAc(b1-6)[GlcNAc(b1-3)]Gal(b1-4)GlcNAc
# Procedure, shortened: as §1
binder,measurement,setting,value
SabA (Helicobacter pylori) (protein) MGSSHHHHHHSSGLVPRGSHMENLYFQGEDNGFFVSAGYQIGEAVQMVKNTGELKNLNEKYEQLSQYLNQVASLKQSIQNANNIELVNSSLNYLKSFTNNNYNSTTQSPIFNAVQAVITSVLGFWSLYAGNYFTFFVGKKVGDSGQPASVQGNPPFKTIIENCSGIENCAMDQTTYDKMKKLAEDLQAAQTNSATKGNNLCALSGCAATDSTSNPPNSTVSNALNLAQQLMDLIANTKTAMMWKNIVISGVSNTSGAITSTNYPTQYAVFNNIKAMIPILQQAVTLSQSNHTLSASLQAQATGSQTNPKFAKDIYTFAQNQKQVISYAQDIFNLFNSIPAEQYKYLEKAYLKIPNAGSTPTNPYRQVVNLNQEVQTIKNNVSYYGNRVDAALSVARDVYNLKSNQAEIVTAYNDAKTLSEEISKLPHNQVNTKDIVTLPYDKNAPAAGQSNYQINPEQQSNLNQALAAMSNNPFKKVGMISSQNNNGA,glycan array binding signal (z-score),[1],-0.582
same,glycan array binding signal (z-score),[2],0.113
same,glycan array binding signal (z-score),[3],-0.168
same,glycan array binding signal (z-score),[4],-0.091
same,glycan array binding signal (z-score),[5],-0.753
same,glycan array binding signal (z-score),[6],0.175
same,glycan array binding signal (z-score),[7],-0.287
same,glycan array binding signal (z-score),[8],1.31
same,glycan array binding signal (z-score),[9],-0.819
same,glycan array binding signal (z-score),[10],-0.545
same,glycan array binding signal (z-score),[11],-0.082
same,glycan array binding signal (z-score),[12],0.384
same,glycan array binding signal (z-score),[13],-0.832
same,glycan array binding signal (z-score),[14],-0.48
same,glycan array binding signal (z-score),[15],-0.461
same,glycan array binding signal (z-score),[16],-0.312
same,glycan array binding signal (z-score),[17],0.175
same,glycan array binding signal (z-score),[18],-0.33
same,glycan array binding signal (z-score),[19],-0.639
same,glycan array binding signal (z-score),[20],0.826
same,glycan array binding signal (z-score),[21],0.906
same,glycan array binding signal (z-score),[22],-0.43
same,glycan array binding signal (z-score),[23],0.315
same,glycan array binding signal (z-score),[24],0.246
same,glycan array binding signal (z-score),[25],-0.149
same,glycan array binding signal (z-score),[26],-0.025
same,glycan array binding signal (z-score),[27],0.629
same,glycan array binding signal (z-score),[28],-0.135
same,glycan array binding signal (z-score),[29],-0.132
same,glycan array binding signal (z-score),[30],0.364
same,glycan array binding signal (z-score),[31],0.605
same,glycan array binding signal (z-score),[32],-0.495
same,glycan array binding signal (z-score),[33],-0.732
same,glycan array binding signal (z-score),[34],-0.578
same,glycan array binding signal (z-score),[35],-0.39
same,glycan array binding signal (z-score),[36],-0.634
same,glycan array binding signal (z-score),[37],-1.04

# Retrieved one by one from the list above, 2 records:
binder,measurement,setting,value
SabA (Helicobacter pylori) (protein) MGSSHHHHHHSSGLVPRGSHMENLYFQGEDNGFFVSAGYQIGEAVQMVKNTGELKNLNEKYEQLSQYLNQVASLKQSIQNANNIELVNSSLNYLKSFTNNNYNSTTQSPIFNAVQAVITSVLGFWSLYAGNYFTFFVGKKVGDSGQPASVQGNPPFKTIIENCSGIENCAMDQTTYDKMKKLAEDLQAAQTNSATKGNNLCALSGCAATDSTSNPPNSTVSNALNLAQQLMDLIANTKTAMMWKNIVISGVSNTSGAITSTNYPTQYAVFNNIKAMIPILQQAVTLSQSNHTLSASLQAQATGSQTNPKFAKDIYTFAQNQKQVISYAQDIFNLFNSIPAEQYKYLEKAYLKIPNAGSTPTNPYRQVVNLNQEVQTIKNNVSYYGNRVDAALSVARDVYNLKSNQAEIVTAYNDAKTLSEEISKLPHNQVNTKDIVTLPYDKNAPAAGQSNYQINPEQQSNLNQALAAMSNNPFKKVGMISSQNNNGA,glycan array binding signal (z-score),[8],1.31
same,glycan array binding signal (z-score),[6],0.175
